{"source": "patent US20220033813", "test_system": "Polycomb Repressive Complex 2 (PRC2)", "assay": "EMSA", "settings": "L-RNA; terminal D-deoxyadenosine residues (D-dA); 100 mM KCl, 2.5 mM MgCl2, 30 C; similar to D enantiomer; purified recombinant protein; protein details: purchased from Active Motif (Carlsbad, Calif.); label: Cy3; synthetic backbone; mirror-image nucleic acid; variant of D-(G3A4)4", "note": "For at least one entry, the source does not settle the construct or the ends of the probe."}
{"sequence": "GGGAAAA [L-(G3A4)4]", "values": [{"measurement": "binding result", "value": "binds"}]}
